For 3 molecules, binding results are on record in article PMC4956306.

By UniProt entry, the sequences of proteins in these tests, tags left out.
UniProt O43237: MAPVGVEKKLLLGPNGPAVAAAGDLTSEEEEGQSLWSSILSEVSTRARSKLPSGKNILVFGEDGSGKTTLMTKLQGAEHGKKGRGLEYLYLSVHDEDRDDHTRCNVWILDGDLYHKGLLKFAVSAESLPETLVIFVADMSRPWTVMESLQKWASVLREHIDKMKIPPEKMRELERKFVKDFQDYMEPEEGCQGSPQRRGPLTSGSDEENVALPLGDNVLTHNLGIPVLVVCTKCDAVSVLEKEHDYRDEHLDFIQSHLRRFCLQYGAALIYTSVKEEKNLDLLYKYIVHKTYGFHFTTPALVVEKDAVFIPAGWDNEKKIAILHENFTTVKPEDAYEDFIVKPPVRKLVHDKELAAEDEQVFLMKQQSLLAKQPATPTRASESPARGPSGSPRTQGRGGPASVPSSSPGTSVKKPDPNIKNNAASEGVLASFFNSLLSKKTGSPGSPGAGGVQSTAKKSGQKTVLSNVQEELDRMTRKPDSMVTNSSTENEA
UniProt O60566: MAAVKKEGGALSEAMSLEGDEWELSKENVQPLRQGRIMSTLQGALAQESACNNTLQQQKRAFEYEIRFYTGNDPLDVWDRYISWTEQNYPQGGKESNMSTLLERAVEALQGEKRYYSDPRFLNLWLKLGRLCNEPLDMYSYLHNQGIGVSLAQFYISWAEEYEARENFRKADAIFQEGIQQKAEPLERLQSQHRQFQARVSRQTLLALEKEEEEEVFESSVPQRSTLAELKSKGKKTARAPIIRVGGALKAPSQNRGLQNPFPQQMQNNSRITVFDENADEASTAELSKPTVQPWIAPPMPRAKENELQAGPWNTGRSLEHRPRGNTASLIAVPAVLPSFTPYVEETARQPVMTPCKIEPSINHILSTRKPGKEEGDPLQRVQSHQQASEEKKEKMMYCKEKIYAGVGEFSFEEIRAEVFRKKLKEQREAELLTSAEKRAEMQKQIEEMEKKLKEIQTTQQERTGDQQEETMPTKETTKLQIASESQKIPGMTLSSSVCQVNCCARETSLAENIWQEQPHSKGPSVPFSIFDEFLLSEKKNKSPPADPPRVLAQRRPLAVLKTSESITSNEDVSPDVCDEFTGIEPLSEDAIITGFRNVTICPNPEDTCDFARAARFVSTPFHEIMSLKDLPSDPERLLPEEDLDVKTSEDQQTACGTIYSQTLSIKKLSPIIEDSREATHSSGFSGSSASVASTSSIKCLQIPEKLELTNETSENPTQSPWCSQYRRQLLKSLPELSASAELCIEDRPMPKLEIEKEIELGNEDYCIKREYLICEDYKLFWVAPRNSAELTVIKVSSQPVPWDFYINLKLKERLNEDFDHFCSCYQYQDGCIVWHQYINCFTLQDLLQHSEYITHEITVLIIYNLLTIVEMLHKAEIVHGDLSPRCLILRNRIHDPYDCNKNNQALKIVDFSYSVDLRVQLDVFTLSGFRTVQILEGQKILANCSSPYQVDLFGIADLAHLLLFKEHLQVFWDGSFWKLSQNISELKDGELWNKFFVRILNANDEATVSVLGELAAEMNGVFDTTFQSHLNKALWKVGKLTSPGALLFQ

B1: Zw10 (protein, UniProt O43264 1-779)
chain: MASFVTEVLAHSGRLEKEDLGTRISRLTRRVEEIKGEVCNMISKKYSEFLPSMQSAQGLITQVDKLSEDIDLLKSRIESEVRRDLHVSTGEFTDLKQQLERDSVVLSLLKQLQEFSTAIEEYNCALTEKKYVTGAQRLEEAQKCLKLLKSRKCFDLKILKSLSMELTIQKQNILYHLGEEWQKLIVWKFPPSKDTSSLESYLQTELHLYTEQSHKEEKTPMPPISSVLLAFSVLGELHSKLKSFGQMLLKYILRPLASCPSLHAVIESQPNIVIIRFESIMTNLEYPSPSEVFTKIRLVLEVLQKQLLDLPLDTDLENEKTSTVPLAEMLGDMIWEDLSECLIKNCLVYSIPTNSSKLQQYEEIIQSTEEFENALKEMRFLKGDTTDLLKYARNINSHFANKKCQDVIVAARNLMTSEIHNTVKIIPDSKINVPELPTPDEDNKLEVQKVSNTQYHEVMNLEPENTLDQHSFSLPTCRISESVKKLMELAYQTLLEATTSSDQCAVQLFYSVRNIFHLFHDVVPTYHKENLQKLPQLAAIHHNNCMYIAHHLLTLGHQFRLRLAPILCDGTATFVDLVPGFRRLGTECFLAQMRAQKGELLERLSSARNFSNMDDEENYSAASKAVRQVLHQLKRLGIVWQDVLPVNIYCKAMGTLLNTAISEVIGKITALEDISTEDGDRLYSLCKTVMDEGPQVFAPLSEESKNKKYQEEVPVYVPKWMPFKELMMMLQASLQEIGDRWADGKGPLAAAFSSSEVKALIRALFQNTERRAAALAKIK
B2: Mad1 (protein, UniProt Q9Y6D9 1-718)
chain: MEDLGENTMVLSTLRSLNNFISQRVEGGSGLDISTSAPGSLQMQYQQSMQLEERAEQIRSKSHLIQVEREKMQMELSHKRARVELERAASTSARNYEREVDRNQELLTRIRQLQEREAGAEEKMQEQLERNRQCQQNLDAASKRLREKEDSLAQAGETINALKGRISELQWSVMDQEMRVKRLESEKQELQEQLDLQHKKCQEANQKIQELQASQEARADHEQQIKDLEQKLSLQEQDAAIVKNMKSELVRLPRLERELKQLREESAHLREMRETNGLLQEELEGLQRKLGRQEKMQETLVGLELENERLLAKLQSWERLDQTMGLSIRTPEDLSRFVVELQQRELALKDKNSAVTSSARGLEKARQQLQEELRQVSGQLLEERKKRETHEALARRLQKRVLLLTKERDGMRAILGSYDSELTPAEYSPQLTRRMREAEDMVQKVHSHSAEMEAQLSQALEELGGQKQRADMLEMELKMLKSQSSSAEQSFLFSREEADTLRLKVEELEGERSRLEEEKRMLEAQLERRALQGDYDQSRTKVLHMSLNPTSVARQRLREDHSQLQAECERLRGLLRAMERGGTVPADLEAAAASLPSSKEVAELKKQVESAELKNQRLKEVFQTKIQEFRKACYTLTGYQIDITTENQYRLTSLYAEHPGDCLIFKATSPSGSKMQLLETEFSHTVGELIEVHLRRQDSIPAFLSSLTLELFSRQTVA

Results are given in words; binding and its absence hold for the method and conditions named. In cells and extracts the contact can be indirect. Some binding calls cover weakened binding; strength is not graded here.

This assay deals with human LIC2-MTAP-MVenus (dynein Light Intermediate Chain 2 fused to a multifunctional C-terminal affinity purification tag) (human) (UniProt O43237). Put plainly: pull-down; LIC2-MTAP captured by its SBP tag on a Streptactin-HP column from mitotic cryo-lysates of the stable U2OS line (nocodazole 400 nM, released 1 h); lysis 50 mM Tris pH 7.5, 125 mM NaCl, 1 mM EGTA, 0.2 NP-40, 5% glycerol; wash 250 mM NaCl, 0.2% NP-40; elution with 2.5 mM D-biotin; immunoblotting; empty MTAP vector line as control. (Immunoblotting shows a protein as a band on a membrane.)
As for BubR1 (from UniProt O60566 1-1050), the binding result was “binds”. As for B1, the binding entry is “binds”. Then B2, with “binds”.
